Article PMC13391367
No constants are given. Whether binding was seen depends on the method and setting. In cells and extracts the contact can be indirect. These calls come from enrichment with a bait or labelling near it, and not all partners need be listed.

Amino acid sequences for entries named in this document (tags omitted).
UniProt O60318: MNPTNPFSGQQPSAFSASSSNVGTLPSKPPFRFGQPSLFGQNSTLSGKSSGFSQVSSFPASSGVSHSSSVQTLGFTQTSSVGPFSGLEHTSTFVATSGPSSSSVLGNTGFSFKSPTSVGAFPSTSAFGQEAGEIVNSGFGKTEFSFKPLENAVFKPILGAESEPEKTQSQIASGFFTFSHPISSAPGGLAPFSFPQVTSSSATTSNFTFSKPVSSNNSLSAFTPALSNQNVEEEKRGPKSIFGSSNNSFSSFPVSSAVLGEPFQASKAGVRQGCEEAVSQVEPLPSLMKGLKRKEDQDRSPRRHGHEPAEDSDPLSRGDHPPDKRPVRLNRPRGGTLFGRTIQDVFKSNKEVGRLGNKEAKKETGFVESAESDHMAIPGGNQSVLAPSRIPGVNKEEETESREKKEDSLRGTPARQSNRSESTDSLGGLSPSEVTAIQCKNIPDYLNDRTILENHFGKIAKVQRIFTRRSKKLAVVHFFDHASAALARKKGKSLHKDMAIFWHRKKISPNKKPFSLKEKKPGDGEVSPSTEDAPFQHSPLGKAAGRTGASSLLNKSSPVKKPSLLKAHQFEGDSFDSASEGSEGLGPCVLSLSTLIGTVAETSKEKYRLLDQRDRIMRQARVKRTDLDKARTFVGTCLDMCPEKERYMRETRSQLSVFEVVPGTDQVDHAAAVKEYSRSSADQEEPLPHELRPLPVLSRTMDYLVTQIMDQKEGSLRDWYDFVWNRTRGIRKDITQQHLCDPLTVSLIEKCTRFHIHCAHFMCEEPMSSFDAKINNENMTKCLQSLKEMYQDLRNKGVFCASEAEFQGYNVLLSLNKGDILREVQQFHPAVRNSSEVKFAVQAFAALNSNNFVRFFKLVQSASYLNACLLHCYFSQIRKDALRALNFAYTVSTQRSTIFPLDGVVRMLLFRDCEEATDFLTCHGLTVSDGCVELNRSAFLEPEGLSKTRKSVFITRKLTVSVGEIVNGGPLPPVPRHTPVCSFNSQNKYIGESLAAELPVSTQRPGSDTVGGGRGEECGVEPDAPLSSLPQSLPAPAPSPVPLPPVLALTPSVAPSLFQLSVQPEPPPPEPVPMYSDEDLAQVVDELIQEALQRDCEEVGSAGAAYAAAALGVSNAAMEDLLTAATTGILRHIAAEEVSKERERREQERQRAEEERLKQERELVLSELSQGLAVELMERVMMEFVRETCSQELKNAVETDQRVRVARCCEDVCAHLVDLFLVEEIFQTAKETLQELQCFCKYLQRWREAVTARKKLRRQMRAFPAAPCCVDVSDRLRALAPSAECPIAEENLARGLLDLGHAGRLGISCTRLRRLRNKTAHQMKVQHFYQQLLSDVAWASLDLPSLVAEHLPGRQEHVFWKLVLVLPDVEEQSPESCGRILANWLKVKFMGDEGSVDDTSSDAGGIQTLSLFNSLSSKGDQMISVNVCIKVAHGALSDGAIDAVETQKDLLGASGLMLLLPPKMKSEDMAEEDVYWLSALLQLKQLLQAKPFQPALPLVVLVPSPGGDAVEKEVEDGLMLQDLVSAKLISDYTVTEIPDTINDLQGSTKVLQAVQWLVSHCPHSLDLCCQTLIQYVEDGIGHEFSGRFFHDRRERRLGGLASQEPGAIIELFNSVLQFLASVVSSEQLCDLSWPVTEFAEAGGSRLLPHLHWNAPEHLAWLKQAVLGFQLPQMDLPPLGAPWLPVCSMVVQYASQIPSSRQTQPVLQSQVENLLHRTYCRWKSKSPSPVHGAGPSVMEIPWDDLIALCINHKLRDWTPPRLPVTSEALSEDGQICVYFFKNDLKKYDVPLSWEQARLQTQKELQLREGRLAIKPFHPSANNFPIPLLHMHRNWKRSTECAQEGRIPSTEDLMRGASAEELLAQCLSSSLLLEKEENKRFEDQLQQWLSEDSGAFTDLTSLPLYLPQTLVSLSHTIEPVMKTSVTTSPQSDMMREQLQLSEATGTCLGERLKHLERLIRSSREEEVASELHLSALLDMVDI

Molecular target: GANP–3×Flag (endogenously tagged) (human (endogenous in HeLa)) (UniProt O60318)
Assay: affinity purification with mass spectrometry; anti-Flag IP from extracts of HeLa cells with endogenously 3×Flag-tagged GANP, LENG8 or PCID2; high stringency (washes with 450 mM NaCl); with or without Pierce universal nuclease; label-free, triplicates, against maternal HeLa

- binding: binds
B1: ENY2 (endogenous) (protein, UniProt Q9NPA8 1-101)
chain: MVVSKMNKDAQMRAAINQKLIETGERERLKELLRAKLIECGWKDQLKAHCKEVIKEKGLEHVTVDDLVAEITPKGRALVPDSVKKELLQRIRTFLAQHASL
